We go through 4 molecules from paper PMC4691038.

Protein sequences, listed by entry. Tags and fused reporters are not part of them. Lines headed by an entry give the natural chain unless they say otherwise; changes in a name come on top.
UniProt Q9NZM3: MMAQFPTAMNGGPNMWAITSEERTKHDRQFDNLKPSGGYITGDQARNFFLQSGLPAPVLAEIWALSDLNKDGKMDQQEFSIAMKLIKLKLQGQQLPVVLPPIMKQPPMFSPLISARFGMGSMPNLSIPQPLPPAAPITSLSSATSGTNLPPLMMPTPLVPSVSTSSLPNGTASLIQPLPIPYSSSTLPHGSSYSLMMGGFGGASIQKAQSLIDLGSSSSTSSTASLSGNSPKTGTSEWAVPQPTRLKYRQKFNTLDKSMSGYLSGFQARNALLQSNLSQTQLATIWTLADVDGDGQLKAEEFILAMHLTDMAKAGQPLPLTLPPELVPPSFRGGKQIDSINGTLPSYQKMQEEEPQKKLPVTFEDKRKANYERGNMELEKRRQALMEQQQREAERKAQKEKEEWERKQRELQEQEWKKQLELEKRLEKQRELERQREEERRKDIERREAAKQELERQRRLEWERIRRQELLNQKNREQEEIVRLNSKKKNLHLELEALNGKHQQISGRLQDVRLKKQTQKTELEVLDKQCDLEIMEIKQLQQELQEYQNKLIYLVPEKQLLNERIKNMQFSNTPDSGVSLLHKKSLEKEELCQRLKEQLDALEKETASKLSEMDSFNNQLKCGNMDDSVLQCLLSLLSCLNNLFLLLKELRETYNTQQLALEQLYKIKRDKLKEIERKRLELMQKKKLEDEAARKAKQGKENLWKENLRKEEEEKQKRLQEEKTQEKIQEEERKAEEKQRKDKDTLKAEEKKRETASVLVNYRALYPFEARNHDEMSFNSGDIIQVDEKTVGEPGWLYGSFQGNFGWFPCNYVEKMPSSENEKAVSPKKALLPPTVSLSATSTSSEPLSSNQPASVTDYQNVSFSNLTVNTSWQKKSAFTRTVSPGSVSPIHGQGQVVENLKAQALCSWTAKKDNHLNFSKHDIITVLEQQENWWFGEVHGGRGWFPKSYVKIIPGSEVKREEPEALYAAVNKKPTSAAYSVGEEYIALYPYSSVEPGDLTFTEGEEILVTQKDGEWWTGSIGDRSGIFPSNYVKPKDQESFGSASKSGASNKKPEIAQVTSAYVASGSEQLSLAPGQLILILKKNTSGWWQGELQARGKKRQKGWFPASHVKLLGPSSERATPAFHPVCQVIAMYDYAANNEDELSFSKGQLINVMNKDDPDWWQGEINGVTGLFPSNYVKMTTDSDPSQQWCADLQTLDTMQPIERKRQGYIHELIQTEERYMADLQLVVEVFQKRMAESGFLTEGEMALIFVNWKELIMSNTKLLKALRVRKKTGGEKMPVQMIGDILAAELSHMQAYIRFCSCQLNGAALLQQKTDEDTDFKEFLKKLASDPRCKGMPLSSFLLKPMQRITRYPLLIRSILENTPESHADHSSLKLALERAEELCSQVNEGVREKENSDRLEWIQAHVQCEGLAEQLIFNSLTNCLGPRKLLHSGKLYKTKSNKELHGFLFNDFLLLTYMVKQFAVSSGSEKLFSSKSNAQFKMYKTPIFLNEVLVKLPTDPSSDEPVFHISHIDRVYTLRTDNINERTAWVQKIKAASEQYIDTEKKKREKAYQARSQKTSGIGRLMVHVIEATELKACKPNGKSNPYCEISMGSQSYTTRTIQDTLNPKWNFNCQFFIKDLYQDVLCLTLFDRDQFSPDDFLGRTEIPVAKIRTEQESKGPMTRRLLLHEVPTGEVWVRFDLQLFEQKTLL
UniProt Q12929: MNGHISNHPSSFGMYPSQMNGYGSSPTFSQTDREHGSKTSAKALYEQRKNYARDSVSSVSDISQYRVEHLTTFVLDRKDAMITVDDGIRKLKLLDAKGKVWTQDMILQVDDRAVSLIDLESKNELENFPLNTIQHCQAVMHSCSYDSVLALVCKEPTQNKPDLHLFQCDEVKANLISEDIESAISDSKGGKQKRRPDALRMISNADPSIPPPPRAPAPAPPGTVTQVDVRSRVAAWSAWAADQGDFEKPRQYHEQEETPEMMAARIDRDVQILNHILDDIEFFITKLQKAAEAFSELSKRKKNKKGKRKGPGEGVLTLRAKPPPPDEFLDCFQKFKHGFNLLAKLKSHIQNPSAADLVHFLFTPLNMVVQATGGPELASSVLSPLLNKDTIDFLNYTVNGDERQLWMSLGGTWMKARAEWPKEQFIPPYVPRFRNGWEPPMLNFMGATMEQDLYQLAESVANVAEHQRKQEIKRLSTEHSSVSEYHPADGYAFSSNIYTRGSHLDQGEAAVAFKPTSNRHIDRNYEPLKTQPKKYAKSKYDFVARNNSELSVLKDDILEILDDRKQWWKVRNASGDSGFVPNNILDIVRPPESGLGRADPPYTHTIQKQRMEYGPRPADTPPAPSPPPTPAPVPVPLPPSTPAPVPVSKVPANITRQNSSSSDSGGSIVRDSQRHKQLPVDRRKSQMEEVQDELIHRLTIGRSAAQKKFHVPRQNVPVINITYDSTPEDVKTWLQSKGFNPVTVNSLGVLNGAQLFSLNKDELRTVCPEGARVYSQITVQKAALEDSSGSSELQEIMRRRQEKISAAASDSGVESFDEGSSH

Test [1] deals with T1, Myc-RABEP1 (human) (UniProt Q15276).
T1 sequence: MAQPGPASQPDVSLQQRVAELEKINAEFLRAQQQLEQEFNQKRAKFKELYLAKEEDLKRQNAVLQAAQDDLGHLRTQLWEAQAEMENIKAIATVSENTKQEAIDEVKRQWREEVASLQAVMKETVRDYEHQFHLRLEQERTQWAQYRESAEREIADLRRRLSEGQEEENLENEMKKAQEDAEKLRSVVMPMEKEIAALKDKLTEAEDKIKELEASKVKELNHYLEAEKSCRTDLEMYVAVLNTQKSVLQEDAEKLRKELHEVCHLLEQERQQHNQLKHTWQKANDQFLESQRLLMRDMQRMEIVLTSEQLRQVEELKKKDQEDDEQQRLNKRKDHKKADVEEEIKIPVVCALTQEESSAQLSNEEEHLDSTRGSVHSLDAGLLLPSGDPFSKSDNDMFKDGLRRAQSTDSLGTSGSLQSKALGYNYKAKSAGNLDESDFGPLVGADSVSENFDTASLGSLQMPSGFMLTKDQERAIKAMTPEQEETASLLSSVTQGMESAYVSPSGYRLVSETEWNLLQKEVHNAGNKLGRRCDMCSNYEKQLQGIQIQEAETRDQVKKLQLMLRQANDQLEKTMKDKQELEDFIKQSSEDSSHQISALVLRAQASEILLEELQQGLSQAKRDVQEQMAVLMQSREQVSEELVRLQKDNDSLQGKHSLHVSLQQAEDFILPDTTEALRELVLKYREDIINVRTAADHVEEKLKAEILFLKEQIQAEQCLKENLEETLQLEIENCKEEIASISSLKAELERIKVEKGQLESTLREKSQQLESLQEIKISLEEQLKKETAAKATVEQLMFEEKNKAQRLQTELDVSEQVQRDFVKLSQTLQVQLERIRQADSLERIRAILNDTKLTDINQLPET
Kind of test: co-IP; HeLa cells transfected with Myc-ITSN2L or Myc-RABEP1, RIPA lysate, IP with rabbit polyclonal anti-Myc, blot with anti-RABEP1 or anti-ITSN2L.

Test [2] concerns the target T2, endogenous RABEP1 of HeLa cells (human (endogenous in HeLa)) (UniProt Q15276).
T2 sequence: T1 sequence
Kind of test: co-IP; untransfected HeLa lysate, IP with anti-RABEP1 or anti-ITSN2L, blot with the other antibody (endogenous proteins).

Test [3] concerns the target endogenous ITSN2L of HeLa cells (human (endogenous in HeLa)) (UniProt Q9NZM3). Kind of test: co-IP; HeLa cells overexpressing Myc-tagged EPS8; quantitative immunoprecipitation of ITSN2L, RABEP1 detected.
The target of test [4] is Myc-ITSN2L (human) (UniProt Q9NZM3). The test is described as follows: co-IP; HeLa cells transfected with Myc-ITSN2L or Myc-RABEP1, RIPA lysate, IP with rabbit polyclonal anti-Myc, blot with anti-RABEP1 or anti-ITSN2L.
For test [5], the target named is endogenous ITSN2L of HeLa cells (human (endogenous in HeLa)) (UniProt Q9NZM3). Kind of test: co-IP; untransfected HeLa lysate, IP with anti-RABEP1 or anti-ITSN2L, blot with the other antibody (endogenous proteins).
For test [6], the target named is ITSN2L (Intersectin-2Long) expressed from pDBLeu-ITSN2L (human) (UniProt Q9NZM3). Kind of test: two-hybrid; directed test in yeast MaV203: pDBLeu baits with pPC86 preys, Beta-Gal assay (blue colonies).

Results are given in words; binding and its absence hold for the method and conditions named. For some of these results: Binding seen in cells or lysates may run through a third protein. Some entries that bind do so weakly or less than the wild type. For some of these results: Sequences can lack the tags named with a protein.

With “endogenous ITSN2L of HeLa cells (from UniProt Q9NZM3-1 1-1697)”, the binding result in test [1] and in test [2] was “binds” throughout. Consider “Myc-tagged EPS8 (from UniProt Q12929 1-822)”, for which the binding result in test [3] was “binds”.

B1: endogenous RABEP1 of HeLa cells (protein, UniProt Q15276 1-862)
chain: T1 sequence
For the molecule B1, the binding entry in test [3], in test [4] and in test [5] was “binds” each time.

B2: RABEP1 (rabaptin-5) expressed from pPC86-RABEP1 (protein, UniProt Q15276 1-862)
chain: T1 sequence
Consider B2, for which the binding entry in test [6] is on record as “binds”.
